Assay results taken from publication PMC12120796.
These are yes or no findings as the source states them, for the method shown. In cells and extracts the contact can be indirect. Here binding means that the protein was enriched with, or labelled near, the bait; the list need not be complete. Where a sequence is shown, tags or fusion partners need not be part of it.

By UniProt entry, the sequences of proteins in these tests, tags left out.
UniProt P42224: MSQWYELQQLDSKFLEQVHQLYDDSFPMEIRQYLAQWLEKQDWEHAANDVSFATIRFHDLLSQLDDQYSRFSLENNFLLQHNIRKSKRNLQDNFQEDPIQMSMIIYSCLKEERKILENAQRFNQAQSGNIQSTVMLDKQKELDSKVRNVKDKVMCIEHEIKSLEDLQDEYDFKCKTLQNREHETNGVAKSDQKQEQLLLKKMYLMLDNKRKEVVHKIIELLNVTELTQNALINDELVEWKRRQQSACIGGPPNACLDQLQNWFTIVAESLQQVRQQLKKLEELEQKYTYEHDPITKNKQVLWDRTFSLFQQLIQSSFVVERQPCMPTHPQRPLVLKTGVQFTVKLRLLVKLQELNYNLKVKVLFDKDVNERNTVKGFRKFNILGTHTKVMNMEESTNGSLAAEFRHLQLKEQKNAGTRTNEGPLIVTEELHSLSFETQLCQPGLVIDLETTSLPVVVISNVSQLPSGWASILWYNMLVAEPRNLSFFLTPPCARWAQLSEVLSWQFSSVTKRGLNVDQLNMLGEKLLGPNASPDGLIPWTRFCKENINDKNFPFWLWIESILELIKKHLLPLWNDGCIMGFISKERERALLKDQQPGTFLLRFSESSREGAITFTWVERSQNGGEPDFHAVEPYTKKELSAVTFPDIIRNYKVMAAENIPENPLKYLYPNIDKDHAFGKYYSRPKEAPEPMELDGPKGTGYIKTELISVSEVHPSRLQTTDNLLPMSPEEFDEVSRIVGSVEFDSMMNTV

Target: T1, UDP‐glucose dehydrogenase (UGDH) (human (endogenous in human primary chondrocytes)) (UniProt O60701)
T1 sequence: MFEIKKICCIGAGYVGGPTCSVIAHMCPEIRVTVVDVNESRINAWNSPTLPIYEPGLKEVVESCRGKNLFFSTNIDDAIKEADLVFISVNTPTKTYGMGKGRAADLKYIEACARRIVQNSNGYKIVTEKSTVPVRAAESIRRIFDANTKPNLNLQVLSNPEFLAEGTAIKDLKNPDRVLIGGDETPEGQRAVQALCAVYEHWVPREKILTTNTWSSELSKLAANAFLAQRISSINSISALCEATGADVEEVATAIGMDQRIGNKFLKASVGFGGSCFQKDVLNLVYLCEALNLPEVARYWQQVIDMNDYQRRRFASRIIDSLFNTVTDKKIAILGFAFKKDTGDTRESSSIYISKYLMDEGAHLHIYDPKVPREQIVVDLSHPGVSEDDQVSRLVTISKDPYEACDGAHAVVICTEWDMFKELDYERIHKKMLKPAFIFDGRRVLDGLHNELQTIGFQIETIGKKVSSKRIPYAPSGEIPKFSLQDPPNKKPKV
Experiment: affinity purification with mass spectrometry; UGDH purified by CoIP from chondrocytes, followed by MS analysis

binding: binds
Substance: signal transducer and activator of transcription 1 (STAT1) (from UniProt P42224 1-750)
